Source: PMC8304497
No constants are given. Whether binding was seen depends on the method and setting. In cells and extracts the contact can be indirect. Some entries that bind do so weakly or less than the wild type.

Amino acid sequences for entries named in this document (tags omitted).
UniProt P11798: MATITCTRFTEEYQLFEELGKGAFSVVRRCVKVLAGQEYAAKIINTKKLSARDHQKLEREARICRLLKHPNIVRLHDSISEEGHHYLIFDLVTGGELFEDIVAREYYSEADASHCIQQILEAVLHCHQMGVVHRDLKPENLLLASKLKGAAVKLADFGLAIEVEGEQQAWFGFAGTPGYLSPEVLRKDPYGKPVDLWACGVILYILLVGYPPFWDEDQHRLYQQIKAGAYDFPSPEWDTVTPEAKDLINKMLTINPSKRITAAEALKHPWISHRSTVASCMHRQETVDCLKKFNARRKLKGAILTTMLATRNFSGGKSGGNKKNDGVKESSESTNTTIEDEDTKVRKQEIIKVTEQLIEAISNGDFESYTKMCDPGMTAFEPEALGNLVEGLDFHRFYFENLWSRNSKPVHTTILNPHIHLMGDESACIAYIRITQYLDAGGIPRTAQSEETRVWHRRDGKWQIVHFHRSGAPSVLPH
UniProt P20357: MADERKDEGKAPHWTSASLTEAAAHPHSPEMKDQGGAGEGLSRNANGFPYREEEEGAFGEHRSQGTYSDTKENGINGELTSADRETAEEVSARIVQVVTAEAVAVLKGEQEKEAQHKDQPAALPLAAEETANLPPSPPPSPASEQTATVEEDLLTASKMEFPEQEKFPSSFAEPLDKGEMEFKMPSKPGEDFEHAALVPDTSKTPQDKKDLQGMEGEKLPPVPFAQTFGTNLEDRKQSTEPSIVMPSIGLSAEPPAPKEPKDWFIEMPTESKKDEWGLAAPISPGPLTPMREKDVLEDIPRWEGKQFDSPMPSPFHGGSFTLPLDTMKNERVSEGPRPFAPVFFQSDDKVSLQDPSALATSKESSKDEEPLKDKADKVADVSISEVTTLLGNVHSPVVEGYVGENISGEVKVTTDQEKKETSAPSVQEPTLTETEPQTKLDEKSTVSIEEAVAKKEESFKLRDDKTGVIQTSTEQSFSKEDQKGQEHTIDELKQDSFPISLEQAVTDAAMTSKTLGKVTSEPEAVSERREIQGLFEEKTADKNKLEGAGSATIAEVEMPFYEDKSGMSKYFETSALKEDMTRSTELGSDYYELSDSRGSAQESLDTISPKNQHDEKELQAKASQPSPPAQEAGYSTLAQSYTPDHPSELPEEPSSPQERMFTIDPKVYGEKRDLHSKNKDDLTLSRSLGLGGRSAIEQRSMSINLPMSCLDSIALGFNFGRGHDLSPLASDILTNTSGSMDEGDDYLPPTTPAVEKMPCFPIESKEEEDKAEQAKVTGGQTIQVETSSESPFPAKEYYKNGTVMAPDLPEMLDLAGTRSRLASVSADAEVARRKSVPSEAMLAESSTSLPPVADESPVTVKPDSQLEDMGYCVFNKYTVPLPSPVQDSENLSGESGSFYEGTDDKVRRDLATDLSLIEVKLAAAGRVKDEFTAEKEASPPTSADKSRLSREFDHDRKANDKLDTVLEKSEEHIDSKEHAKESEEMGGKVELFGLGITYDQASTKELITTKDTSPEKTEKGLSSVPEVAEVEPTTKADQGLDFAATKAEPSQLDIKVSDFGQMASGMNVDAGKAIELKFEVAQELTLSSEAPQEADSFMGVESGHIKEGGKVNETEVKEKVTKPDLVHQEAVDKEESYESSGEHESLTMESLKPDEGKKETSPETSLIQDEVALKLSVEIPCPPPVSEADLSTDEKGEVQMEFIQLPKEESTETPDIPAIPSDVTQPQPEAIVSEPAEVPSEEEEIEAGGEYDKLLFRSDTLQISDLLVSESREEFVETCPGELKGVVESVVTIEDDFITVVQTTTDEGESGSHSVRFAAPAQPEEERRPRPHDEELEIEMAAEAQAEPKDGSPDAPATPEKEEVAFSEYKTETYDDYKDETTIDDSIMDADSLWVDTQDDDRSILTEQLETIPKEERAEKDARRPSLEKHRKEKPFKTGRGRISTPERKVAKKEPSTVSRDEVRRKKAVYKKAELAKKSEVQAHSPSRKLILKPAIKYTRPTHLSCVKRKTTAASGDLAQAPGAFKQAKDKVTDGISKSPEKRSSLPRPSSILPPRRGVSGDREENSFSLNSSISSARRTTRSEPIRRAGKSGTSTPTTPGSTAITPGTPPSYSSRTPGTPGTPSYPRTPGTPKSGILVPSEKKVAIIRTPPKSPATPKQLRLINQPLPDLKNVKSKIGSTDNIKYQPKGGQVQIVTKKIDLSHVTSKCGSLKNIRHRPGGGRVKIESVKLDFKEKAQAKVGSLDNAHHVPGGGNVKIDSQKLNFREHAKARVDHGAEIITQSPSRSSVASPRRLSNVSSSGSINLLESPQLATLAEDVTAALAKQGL

T1: Neuronal cell adhesion molecule 2, isoform NCAM2.1 (mouse (endogenous in cerebral cortex)) (UniProt O35136)
T1 sequence: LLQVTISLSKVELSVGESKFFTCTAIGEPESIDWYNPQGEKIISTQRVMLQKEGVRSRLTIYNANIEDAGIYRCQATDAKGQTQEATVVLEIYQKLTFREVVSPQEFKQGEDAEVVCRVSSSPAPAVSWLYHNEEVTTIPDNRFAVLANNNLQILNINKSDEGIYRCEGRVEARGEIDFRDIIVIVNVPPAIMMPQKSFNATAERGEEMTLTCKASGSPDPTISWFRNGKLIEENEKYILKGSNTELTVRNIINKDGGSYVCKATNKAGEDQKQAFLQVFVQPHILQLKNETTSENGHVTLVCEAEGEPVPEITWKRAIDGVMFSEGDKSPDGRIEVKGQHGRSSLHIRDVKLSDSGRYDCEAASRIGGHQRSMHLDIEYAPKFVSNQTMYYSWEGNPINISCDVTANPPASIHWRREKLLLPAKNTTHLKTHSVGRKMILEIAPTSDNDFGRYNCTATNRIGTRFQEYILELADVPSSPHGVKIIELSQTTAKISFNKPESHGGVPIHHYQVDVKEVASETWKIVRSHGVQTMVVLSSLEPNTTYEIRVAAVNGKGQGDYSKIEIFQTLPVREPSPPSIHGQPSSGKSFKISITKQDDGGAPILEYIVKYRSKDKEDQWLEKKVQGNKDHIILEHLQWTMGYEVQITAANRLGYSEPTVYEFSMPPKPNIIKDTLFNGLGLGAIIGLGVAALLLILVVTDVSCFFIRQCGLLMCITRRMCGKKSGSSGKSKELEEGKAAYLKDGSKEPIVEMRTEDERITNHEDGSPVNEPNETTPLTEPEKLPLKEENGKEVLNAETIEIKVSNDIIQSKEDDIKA

T2: Reticulon-4 (mouse (endogenous in cerebral cortex)) (UniProt Q99P72)
T2 sequence: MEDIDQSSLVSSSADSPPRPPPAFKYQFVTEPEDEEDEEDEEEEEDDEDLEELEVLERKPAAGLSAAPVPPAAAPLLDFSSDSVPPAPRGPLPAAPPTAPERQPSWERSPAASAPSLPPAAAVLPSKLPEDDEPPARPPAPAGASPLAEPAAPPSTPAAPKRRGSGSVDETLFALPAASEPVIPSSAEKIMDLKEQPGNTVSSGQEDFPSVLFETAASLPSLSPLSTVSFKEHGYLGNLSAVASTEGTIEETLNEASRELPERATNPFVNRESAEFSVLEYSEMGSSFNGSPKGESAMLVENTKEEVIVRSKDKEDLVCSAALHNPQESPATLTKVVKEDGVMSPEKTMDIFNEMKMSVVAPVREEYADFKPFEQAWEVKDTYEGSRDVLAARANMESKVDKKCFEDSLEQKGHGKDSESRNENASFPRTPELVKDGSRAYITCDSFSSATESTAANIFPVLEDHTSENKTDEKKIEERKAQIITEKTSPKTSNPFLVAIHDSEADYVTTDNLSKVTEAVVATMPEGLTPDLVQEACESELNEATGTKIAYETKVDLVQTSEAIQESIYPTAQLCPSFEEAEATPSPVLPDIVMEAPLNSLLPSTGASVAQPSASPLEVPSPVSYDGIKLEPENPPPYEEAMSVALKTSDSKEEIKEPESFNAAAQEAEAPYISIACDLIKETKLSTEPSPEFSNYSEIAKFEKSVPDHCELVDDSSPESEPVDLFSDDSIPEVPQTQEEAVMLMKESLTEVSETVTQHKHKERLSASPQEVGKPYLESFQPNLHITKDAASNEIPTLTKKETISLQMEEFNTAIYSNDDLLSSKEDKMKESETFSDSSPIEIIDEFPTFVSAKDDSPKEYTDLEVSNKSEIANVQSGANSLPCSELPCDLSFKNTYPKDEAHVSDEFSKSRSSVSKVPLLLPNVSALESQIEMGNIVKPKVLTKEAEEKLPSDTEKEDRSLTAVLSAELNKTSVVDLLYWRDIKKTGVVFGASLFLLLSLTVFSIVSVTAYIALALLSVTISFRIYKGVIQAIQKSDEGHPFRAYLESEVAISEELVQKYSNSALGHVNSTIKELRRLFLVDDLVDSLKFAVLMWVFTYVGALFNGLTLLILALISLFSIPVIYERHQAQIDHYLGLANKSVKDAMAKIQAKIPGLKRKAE

T3: NF200 (mouse (endogenous in cortex and hippocampus)) (UniProt P19246)
T3 sequence: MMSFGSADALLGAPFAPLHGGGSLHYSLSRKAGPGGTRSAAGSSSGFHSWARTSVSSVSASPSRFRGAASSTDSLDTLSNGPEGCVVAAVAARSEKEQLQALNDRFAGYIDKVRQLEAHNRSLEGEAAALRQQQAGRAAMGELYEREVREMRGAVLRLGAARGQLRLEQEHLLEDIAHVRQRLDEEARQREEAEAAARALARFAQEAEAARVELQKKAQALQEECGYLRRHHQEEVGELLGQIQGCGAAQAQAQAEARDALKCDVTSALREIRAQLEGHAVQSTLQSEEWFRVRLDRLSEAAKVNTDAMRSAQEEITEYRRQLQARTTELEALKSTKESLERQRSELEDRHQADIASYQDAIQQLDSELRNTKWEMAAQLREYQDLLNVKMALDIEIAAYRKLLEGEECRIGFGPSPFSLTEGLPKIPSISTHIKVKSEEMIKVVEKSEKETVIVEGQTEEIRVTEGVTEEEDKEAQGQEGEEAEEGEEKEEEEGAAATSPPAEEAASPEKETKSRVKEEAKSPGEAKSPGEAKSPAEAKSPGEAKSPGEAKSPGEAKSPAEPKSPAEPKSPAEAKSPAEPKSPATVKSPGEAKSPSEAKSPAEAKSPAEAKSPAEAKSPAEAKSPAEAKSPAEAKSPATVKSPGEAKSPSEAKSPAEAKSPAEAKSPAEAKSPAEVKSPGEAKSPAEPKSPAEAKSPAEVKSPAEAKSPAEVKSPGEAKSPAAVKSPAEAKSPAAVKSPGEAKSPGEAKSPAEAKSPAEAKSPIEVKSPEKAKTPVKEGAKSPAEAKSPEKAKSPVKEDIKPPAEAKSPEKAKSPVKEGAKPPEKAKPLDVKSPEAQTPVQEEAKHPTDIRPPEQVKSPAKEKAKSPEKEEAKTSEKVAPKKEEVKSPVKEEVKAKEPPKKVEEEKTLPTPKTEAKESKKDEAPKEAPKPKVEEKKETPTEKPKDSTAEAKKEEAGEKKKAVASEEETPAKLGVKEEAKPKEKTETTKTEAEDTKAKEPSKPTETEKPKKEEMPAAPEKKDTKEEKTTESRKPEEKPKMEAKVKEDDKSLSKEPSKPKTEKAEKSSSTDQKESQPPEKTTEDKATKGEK


Key:
Test in all cases: co-IP; membrane fraction of P10–15 mouse cortex and hippocampus incubated with 2 μg antibody overnight, protein G-Sepharose 2 h, washed with lysis buffer, Western blot
[1] = target: T1, Neuronal cell adhesion molecule 2, isoform NCAM2.1 (mouse (endogenous in cerebral cortex))
[2] = target: Calcium/calmodulin-dependent protein kinase type II alpha (mouse (endogenous in cerebral cortex)) (UniProt P11798)
[3] = target: T2, Reticulon-4 (mouse (endogenous in cerebral cortex))
[4] = target: T3, NF200 (mouse (endogenous in cortex and hippocampus))
[5] = target: Microtubule-associated protein 2 (mouse (endogenous in cerebral cortex)) (UniProt P20357)

binding [1]	binding [2]	binding [3]	binding [4]	binding [5]	Molecule
binds					Microtubule-associated protein 2 (from UniProt P20357 1-1828)
	binds	binds	binds	binds	Neuronal cell adhesion molecule 2, isoform NCAM2.1 (protein, UniProt O35136 20-837) LLQVTISLSKVELSVGESKFFTCTAIGEPESIDWYNPQGEKIISTQRVMLQKEGVRSRLTIYNANIEDAGIYRCQATDAKGQTQEATVVLEIYQKLTFREVVSPQEFKQGEDAEVVCRVSSSPAPAVSWLYHNEEVTTIPDNRFAVLANNNLQILNINKSDEGIYRCEGRVEARGEIDFRDIIVIVNVPPAIMMPQKSFNATAERGEEMTLTCKASGSPDPTISWFRNGKLIEENEKYILKGSNTELTVRNIINKDGGSYVCKATNKAGEDQKQAFLQVFVQPHILQLKNETTSENGHVTLVCEAEGEPVPEITWKRAIDGVMFSEGDKSPDGRIEVKGQHGRSSLHIRDVKLSDSGRYDCEAASRIGGHQRSMHLDIEYAPKFVSNQTMYYSWEGNPINISCDVTANPPASIHWRREKLLLPAKNTTHLKTHSVGRKMILEIAPTSDNDFGRYNCTATNRIGTRFQEYILELADVPSSPHGVKIIELSQTTAKISFNKPESHGGVPIHHYQVDVKEVASETWKIVRSHGVQTMVVLSSLEPNTTYEIRVAAVNGKGQGDYSKIEIFQTLPVREPSPPSIHGQPSSGKSFKISITKQDDGGAPILEYIVKYRSKDKEDQWLEKKVQGNKDHIILEHLQWTMGYEVQITAANRLGYSEPTVYEFSMPPKPNIIKDTLFNGLGLGAIIGLGVAALLLILVVTDVSCFFIRQCGLLMCITRRMCGKKSGSSGKSKELEEGKAAYLKDGSKEPIVEMRTEDERITNHEDGSPVNEPNETTPLTEPEKLPLKEENGKEVLNAETIEIKVSNDIIQSKEDDIKA
